Our source for the inhibition and IC50 values is paper PMC11676817, “Antiproliferative and Morphological Analysis Triggered by Drugs Contained in the Medicines for Malaria Venture COVID-Box Against Toxoplasma gondii Tachyzoites” (Microorganisms, 2024).

Experiment [1] concerns Toxoplasma gondii tachyzoites of the RH strain. Kind of experiment: microbe, parasite or virus in culture. Format: cell-based. The note with it: 24 h, read-out: Inhibition of parasite proliferation.
For experiment [2] the test system is unchanged. Kind of experiment: microbe, parasite or virus in culture. The note with it: 168 h, read-out: IC50 against T. gondii proliferation.

pIC50: −log10 of the molar value.

With `CO[C@@H]1[C@H](N(C)C(=O)c2ccccc2)C[C@H]2O[C@]1(C)n1c3ccccc3c3c4c(c5c6ccccc6n2c5c31)C(=O)NC4` [Midostaurin], the inhibition at […] in experiment [1] lay in the range of 75 to 80%. For the same molecule, in experiment [2], the pIC50 was over 7.00.
